Results deposited as PubChem BioAssay AID602196 (INSERM, 2012).
Purpose: 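Modifiers of cisplatin sensitivity in A549 cells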. Cells: human A549 lung cancer cells. Reagents: siRNA pair against human genes. Duration: 48 h transfection before cisplatin; time from cisplatin to read-out not stated. Treatment: cisplatin at a dose killing half of control-siRNA cells; exact dose and duration not given. Measured: 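Cisplatin cell death as a shift from the 50% death seen with control siRNA; siRNAs toxic or growth-blocking alone scored 0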. Reading the numbers: two-siRNA summed score (-2 to +2): higher = both siRNAs protect from cisplatin killing; -2 means both sensitise. Hit rule: 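Each siRNA scores 0 if harmful alone by LDH or WST-1, otherwise +1 if it reduces and -1 if it increases cisplatin killing; a gene is active when both siRNAs agree (sum +2 or -2)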. Meaning of the calls: active = both siRNAs shift cisplatin killing the same way; inactive = no consistent shift, or siRNA harmful alone.
In all, the deposit lists about 23,000 reagents; shown is an unselected part. 455 of all reagents (2%) were called active. 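Active includes both protection and sensitisation; some change values fall well beyond the stated -50 to +50 range.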 Further read-outs or replicates are left out here. Not given: the amount of reagent.

| Gene | two-siRNA summed score (-2 to +2) | activity call |
| --- | --- | --- |
| CHRNG | -1 | inactive |
| BCL2L12 | 1 | inactive |
| LOC375719 | 0 | inactive |
| ACR | 0 | inactive |
| LOC91632 | 0 | inactive |
| CXCL3 | -1 | inactive |
| NKPD1 | 0 | inactive |
| MGC35045 | 1 | inactive |
| BCKDK | 1 | inactive |
| POPDC2 | 0 | inactive |
| DDX55 | 0 | inactive |
| NOPCHAP1 | 0 | inactive |
| LOC387991 | 1 | inactive |
| DMRT3 | 0 | inactive |
| LOC440933 | 1 | inactive |
| LOC390386 | 2 | active |
| HMGB2 | 1 | inactive |
| LOC393076 (retired record) | 0 | inactive |
| IL17F | 0 | inactive |
| PLP2 | 0 | inactive |
| FBXO4 | 0 | inactive |
| MFAP4 | 0 | inactive |
| LOC392459 | 1 | inactive |
| RIMS2 | 0 | inactive |
| MAPK3 | -1 | inactive |
| NR3C2 | -1 | inactive |
| IPO11 | 0 | inactive |
| SH3TC2 | 0 | inactive |
| UBASH3A | 0 | inactive |
| GPIHBP1 | -1 | inactive |
| EFHB | 0 | inactive |
| STRAP | -1 | inactive |
| MCF2L | 1 | inactive |
| TTC7A | -1 | inactive |
| SLC11A2 | 2 | active |
| CHORDC1 | -1 | inactive |
| LOC440610 | 0 | inactive |
| CCDC149 | 1 | inactive |
| GTF2I | 2 | active |
| TMPRSS9 | 0 | inactive |
| DPY19L2P2 | 0 | inactive |
| LOC401544 | 0 | inactive |
| LOC389024 | 0 | inactive |
| CAMK2N1 | 0 | inactive |
| C1orf159 | 0 | inactive |
| CDC25B | 1 | inactive |
| LOC401207 | 0 | inactive |
| LOC441507 | 0 | inactive |
| TRAPPC4 | -1 | inactive |
| HOXB7 | 0 | inactive |
| P2RY1 | -1 | inactive |
| PDZRN3 | -1 | inactive |
| LOC439966 | 0 | inactive |
| FLJ20618 | 1 | inactive |
| DICER1-AS1 | 1 | inactive |
| POLR1H | 0 | inactive |
| TYR | -1 | inactive |
| COG3 | 0 | inactive |
| LOC344191 | 0 | inactive |
| CRYL1 | -1 | inactive |
| TXNRD2 | -2 | active |
| RPL29 | -1 | inactive |
| TRIM64 | 0 | inactive |
| MRGPRD | 0 | inactive |
| LOC339003 | 0 | inactive |
| HOXC6 | -1 | inactive |
| PNLDC1 | 0 | inactive |
| LOC441782 | 0 | inactive |
| AGXT | -1 | inactive |
| LMF1 | 0 | inactive |
| CSN1S1 | 0 | inactive |
| LOC440206 | 0 | inactive |
| LOC388274 | 0 | inactive |
